Laboratory results taken from doi:10.1101/2023.12.20.572709.
No constants are given. Whether binding was seen depends on the method and setting. Binding seen in cells or lysates may run through a third protein. Some entries that bind do so weakly or less than the wild type.

By UniProt entry, the sequences of proteins in these tests, tags left out.
UniProt P43694: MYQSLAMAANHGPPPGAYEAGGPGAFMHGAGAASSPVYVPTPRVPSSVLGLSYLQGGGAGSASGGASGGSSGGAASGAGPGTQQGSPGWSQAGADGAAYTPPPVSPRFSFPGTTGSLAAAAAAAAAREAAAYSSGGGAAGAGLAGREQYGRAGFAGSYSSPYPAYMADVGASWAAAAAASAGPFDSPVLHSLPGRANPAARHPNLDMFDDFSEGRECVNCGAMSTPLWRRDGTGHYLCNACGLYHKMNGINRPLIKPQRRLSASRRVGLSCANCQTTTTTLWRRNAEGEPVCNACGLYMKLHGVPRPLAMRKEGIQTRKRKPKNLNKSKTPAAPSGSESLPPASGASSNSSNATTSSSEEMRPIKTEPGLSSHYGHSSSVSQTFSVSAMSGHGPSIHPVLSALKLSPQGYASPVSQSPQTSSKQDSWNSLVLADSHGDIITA
UniProt P12883: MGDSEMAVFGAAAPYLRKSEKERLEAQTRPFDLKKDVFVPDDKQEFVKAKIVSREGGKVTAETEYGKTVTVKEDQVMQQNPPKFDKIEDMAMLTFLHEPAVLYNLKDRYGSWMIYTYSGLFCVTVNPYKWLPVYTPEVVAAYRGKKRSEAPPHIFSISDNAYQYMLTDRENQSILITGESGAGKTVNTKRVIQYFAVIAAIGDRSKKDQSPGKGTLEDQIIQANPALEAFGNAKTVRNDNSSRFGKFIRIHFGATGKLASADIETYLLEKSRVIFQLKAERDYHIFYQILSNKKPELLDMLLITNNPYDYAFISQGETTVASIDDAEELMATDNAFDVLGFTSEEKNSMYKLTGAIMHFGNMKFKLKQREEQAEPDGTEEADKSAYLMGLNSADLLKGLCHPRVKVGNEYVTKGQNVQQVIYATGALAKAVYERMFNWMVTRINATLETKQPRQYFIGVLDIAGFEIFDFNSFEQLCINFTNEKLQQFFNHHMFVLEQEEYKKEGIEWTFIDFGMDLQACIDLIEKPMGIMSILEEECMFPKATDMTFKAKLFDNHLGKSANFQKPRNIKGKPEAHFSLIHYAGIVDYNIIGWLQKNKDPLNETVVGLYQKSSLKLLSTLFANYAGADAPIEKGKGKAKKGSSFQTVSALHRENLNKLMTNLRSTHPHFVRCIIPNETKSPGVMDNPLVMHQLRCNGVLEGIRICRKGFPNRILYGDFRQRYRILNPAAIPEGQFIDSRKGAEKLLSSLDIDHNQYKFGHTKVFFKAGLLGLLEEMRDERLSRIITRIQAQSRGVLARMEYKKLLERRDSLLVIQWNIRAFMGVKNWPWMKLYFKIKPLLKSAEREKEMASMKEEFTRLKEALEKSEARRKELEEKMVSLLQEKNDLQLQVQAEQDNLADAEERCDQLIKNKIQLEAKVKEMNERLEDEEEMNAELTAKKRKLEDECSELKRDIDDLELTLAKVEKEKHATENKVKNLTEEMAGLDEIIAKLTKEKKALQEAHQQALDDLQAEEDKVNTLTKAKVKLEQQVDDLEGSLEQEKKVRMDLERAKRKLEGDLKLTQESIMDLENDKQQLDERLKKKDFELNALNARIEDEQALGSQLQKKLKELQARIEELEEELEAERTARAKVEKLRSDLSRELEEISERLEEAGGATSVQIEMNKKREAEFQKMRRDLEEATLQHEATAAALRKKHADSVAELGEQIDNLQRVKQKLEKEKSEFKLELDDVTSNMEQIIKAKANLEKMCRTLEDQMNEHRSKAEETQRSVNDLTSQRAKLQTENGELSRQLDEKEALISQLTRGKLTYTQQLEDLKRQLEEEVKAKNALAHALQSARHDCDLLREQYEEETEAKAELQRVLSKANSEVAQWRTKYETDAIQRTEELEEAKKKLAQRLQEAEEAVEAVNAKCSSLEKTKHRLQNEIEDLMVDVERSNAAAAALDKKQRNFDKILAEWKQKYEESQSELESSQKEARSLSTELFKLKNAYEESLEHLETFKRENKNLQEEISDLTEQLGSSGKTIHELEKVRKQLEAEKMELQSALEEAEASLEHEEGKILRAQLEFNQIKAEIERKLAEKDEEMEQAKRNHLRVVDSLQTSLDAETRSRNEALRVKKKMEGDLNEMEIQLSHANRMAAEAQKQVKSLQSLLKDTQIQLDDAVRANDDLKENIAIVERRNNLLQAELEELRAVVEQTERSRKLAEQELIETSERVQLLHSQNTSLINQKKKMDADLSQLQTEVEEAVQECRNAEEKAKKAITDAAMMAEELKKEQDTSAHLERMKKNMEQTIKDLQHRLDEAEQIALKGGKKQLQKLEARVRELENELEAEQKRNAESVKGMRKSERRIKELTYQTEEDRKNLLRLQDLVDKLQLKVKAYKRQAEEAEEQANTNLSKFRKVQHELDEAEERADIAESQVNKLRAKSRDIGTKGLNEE

Tests used:
[1] = biological target: T1, Fibroblast growth factor 12 (FGF12) (UniProt P61328); test: co-IP
T1 sequence: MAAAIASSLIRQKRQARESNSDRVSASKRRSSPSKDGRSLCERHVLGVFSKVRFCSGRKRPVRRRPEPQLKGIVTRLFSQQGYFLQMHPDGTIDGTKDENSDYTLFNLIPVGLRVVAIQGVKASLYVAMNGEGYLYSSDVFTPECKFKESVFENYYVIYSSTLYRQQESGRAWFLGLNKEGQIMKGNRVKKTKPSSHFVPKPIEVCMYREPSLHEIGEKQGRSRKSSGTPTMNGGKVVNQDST

[2] = biological target: T2, Fibroblast growth factor 12 (FGF12) (human (endogenous in iPS-cardiomyocytes)) (UniProt P61328); test: co-IP
T2 sequence: T1 sequence

| binding [1] | binding [2] | Substance |
| --- | --- | --- |
| binds | – | GATA binding protein 4 (GATA4) (from UniProt P43694 1-442) |
| – | binds | MYH7 (thick myofilament marker) (from UniProt P12883 1-1935) |
